Here are results for one substance from paper PMC10579717.

No constants are given. Whether binding was seen depends on the method and setting. Binding calls can cover weak binding; strength is not graded here.

The target in this assay is BD-GhACO1 (GhACO1 full length fused to the Gal4 DNA-binding domain) (Gossypium hirsutum) (UniProt Q2QDG0). Put plainly: two-hybrid; Gal4 system; prey in pGADT7 (GhXB38D and its domains), bait in pGBKT7 (GhACS4, GhACO1); strain AH109; growth on SD-Trp/-Leu/-His/-Ade at 30 °C for 3-5 days.

Turning to “AD-GhXB38D (GhXB38D full length fused to the Gal4 activation domain) (from UniProt A0A1U8HYW0) (enzyme)”, the binding result is given as “binds”.
